Values quoted from earlier work as cited in patent US11078198B2 (BRISTOL-MYERS SQUIBB COMPANY, priority 2017, dated 2021).
For at least one compound, name, drawing or mass did not settle the structure.

How the values were obtained:
[1] = patients with NASH, 72 weeks, liver biopsy histology; cited from earlier work
[2] = T2DM patients with NAFLD, 6 weeks; cited from earlier work

CC[C@H]1[C@@H](O)[C@@H]2[C@H](CC[C@]3(C)[C@@H]([C@H](C)CCC(=O)O)CC[C@@H]23)[C@@]2(C)CC[C@@H](O)C[C@@H]12 [OCA, obeticholic acid]
fibrosis [1]: statistically significantly improved
hepatic steatosis [1]: statistically significantly improved
hepatocyte ballooning [1]: statistically significantly improved
lobular inflammation [1]: statistically significantly improved
body weight [2]: reduced
insulin sensitivity [2]: statistically significantly improved
